# Reference: PubChem BioAssay (Tox21)
# Amino acid sequences for entries named in this document (tags omitted). A change or cut given only in a name is not applied to a line headed by its entry.
# UniProt P19793: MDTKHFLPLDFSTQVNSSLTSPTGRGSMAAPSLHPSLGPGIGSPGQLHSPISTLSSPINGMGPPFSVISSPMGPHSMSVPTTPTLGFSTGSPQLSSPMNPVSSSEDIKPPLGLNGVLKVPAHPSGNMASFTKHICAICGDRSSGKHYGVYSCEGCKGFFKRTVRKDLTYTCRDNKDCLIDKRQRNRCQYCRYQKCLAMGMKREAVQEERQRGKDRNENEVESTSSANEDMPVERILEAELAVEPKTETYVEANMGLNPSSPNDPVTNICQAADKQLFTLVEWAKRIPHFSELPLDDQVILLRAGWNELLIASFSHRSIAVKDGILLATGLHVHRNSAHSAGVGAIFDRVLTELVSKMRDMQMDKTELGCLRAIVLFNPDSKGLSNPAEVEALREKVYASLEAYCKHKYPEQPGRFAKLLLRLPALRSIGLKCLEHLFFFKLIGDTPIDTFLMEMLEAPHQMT
# Several values for one entry are separate records, joined by “and”; a condition that tells them apart may be missing. Equal entries are not always repeated. This list was built around the results that the source calls inconclusive (neither active nor inactive); the mix of calls is not that of the screen. Potencies of inconclusive entries are doubtful fits and often do not repeat. The source holds several records for some structures; these can differ, active in one and inactive in another. Activity calls are given as the source filed them. Calls follow the shape of the full dose curve.
# Target: Retinoic acid receptor RXR-alpha (Homo sapiens) (UniProt P19793)
# Assay: qHTS assay to identify small molecule agonists of the RXR signaling pathway (AID 1159527); also: nearly all actives have a fitted effect of over 35% in size
# Settings: HEK293T RXRa-UAS-bla, beta-lactamase ratio, 16 h; activation: at 76.8 µM (top of the series) unless noted
# In short: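 Read-out: beta-lactamase FRET ratio (405 nm excitation, 460 and 530 nm emission) after 2 hr substrate loading at room temperature. Cells were RXR-alpha-UAS-bla HEK 293T treated with compounds for 16 hr in 2% charcoal-stripped FBS medium.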
# % is scaled to controls: 0 for no effect and ±100 for the full control effect; potency is read from the fitted curve at half-maximal effect.
Compound,activation,Potency
CC(C)(C)C1CCCCC1O (centres undefined),inactive: 9.22%,–
Cc1cccc2ccccc12,–,inactive
O=C1[C@H](CC[C@H](O)c2ccc(F)cc2)[C@@H](c2ccc(O)cc2)N1c1ccc(F)cc1,inconclusive: -18.7% [at 35.3 µM],–
CCC(C)C1CCCCC1=O (centres undefined),inactive: 0.144%,–
Clc1cccc(C(c2ccc3nc[nH]c3c2)n2ccnc2)c1 (centres undefined),–,"inconclusive: 4.25 µM [activator, partial curve, poor fit]"
CC(C)Cc1nccs1,inconclusive: 18.2%,–
CN(C)C(=O)Nc1ccc(Cl)c(Cl)c1,–,inactive and active: 19.5 µM
O=C(c1ccccc1)C1(O)CCCCC1,inactive: 13.8%,–
CNCCc1ccccn1,inactive: 5.95% [at 35.3 µM],–
CC1CCc2c(N3CCC(O)CC3)c(F)cc3c(=O)c(C(=O)O)cn1c23 (centres undefined),inactive: 1.99% [at 35.3 µM],–
N=c1nc(N2CCCCC2)cc(N)n1O,inactive: 0.864% [at 35.3 µM],–
CCCCCCOC(=O)CCCCCCCC(=O)OCCCCCC,inactive: -0.801%,–
O=C(O)C(Cc1cc(I)c(O)c(I)c1)c1ccccc1 (centres undefined),inactive: 4.92% [at 35.3 µM],–
CCCOc1ccc(S(=O)(=O)N2CCN(CC)CC2)cc1-c1nc2c(CC)n(Cc3ccccn3)nc2c(=O)[nH]1,–,"inconclusive: 30.9 µM [rising, partial curve, poor fit]"
CCO[Si](CCC#N)(OCC)OCC,–,inactive
COC(=O)Cc1cccc2ccccc12,inconclusive: 25.5%,–
Cc1ccc(N=Nc2c(O)ccc3ccccc23)c(C)c1,inconclusive: -16.7% [at 35.3 µM],–
[Cl][Eu]([Cl])[Cl],inactive: 10.7%,–
ClC(Cl)(Br)Br,inactive: 3.48%,–

# As a working copy, 2 of the compounds above.
Compound,activation,Potency
CCCCCCOC(=O)CCCCCCCC(=O)OCCCCCC,inactive: -0.801%,–
O=C(O)C(Cc1cc(I)c(O)c(I)c1)c1ccccc1 (centres undefined),inactive: 4.92% [at 35.3 µM],–
